These are yes or no findings as the source states them, for the method shown. Sequences can lack the tags named with a protein.
Legend:
[1] = biological target: T1, GST-p115-RH(42-252), the RGS box of p115-RhoGEF-RH which lacks the N-terminal extension (human) (UniProt Q92888); assay: condition: only GDP with mAAT-C_(1-17)F11A, without AlF4^-; pull-down; as a2 but buffer A with 10 μM GDP and mAAT-C_(1-17)F11A added instead of AlF4^-; both purified
T1 sequence: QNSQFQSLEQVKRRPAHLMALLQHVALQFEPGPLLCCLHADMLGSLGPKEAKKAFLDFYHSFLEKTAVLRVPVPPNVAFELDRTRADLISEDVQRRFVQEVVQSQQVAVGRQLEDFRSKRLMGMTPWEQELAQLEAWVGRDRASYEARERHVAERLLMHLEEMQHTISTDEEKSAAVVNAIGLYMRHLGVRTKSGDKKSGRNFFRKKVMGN

[2] = biological target: T2, GST-p115-RH (human p115RhoGEF amino acid residues 1-252, N-terminal region including the RH domain) (human) (UniProt Q92888); assay: condition: only GDP alone, without AlF4^- or mAAT-C peptide; pull-down; as a2 but GDP alone: buffer A with 10 μM GDP, without AlF4^- and without peptide; both purified
T2 sequence: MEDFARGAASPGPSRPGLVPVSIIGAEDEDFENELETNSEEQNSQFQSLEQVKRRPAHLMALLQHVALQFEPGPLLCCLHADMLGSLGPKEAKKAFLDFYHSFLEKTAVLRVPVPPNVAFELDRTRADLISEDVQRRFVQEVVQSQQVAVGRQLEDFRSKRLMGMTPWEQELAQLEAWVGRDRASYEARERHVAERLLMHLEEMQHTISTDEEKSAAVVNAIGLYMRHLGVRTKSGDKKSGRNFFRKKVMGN

[3] = biological target: T3, GST-LARG-RH (human LARG amino acid residues 319-598) (human) (UniProt Q9NZN5); assay: as above
T3 sequence: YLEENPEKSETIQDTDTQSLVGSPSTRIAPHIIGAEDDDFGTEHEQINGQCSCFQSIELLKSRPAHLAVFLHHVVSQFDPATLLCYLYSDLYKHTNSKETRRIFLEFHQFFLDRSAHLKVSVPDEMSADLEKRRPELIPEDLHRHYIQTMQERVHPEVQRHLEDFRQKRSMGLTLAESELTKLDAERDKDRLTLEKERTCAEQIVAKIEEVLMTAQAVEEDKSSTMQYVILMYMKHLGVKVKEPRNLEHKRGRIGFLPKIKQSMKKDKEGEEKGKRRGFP

[4] = biological target: T2, GST-p115-RH (human p115RhoGEF amino acid residues 1-252, N-terminal region including the RH domain) (human); assay: condition: only GDP with mAAT-C_(18-35), without AlF4^-; pull-down; as a2 but buffer A with 10 μM GDP and mAAT-C_(18-35) added instead of AlF4^-; both purified
[5] = biological target: T3, GST-LARG-RH (human LARG amino acid residues 319-598) (human); assay: as above

Measured: binding

B1: untagged Gα13iN recombinant protein (GDP-bound) (other, rat | mouse, UniProt P10824 1-28, looked up)
chain: MGCTLSAEDKAAVERSKMIDRNLREDGERLVKILLLGAGESGKSTFLKQMRIIHGQDFDQRAREEFRPTIYSNVIKGMRVLVDAREKLHIPWGDNKNQLHGDKLMAFDTRAPMAAQGMVETRVFLQYLPAIRALWEDSGIQNAYDRRREFQLGESVKYFLDNLDKLGVPDYIPSQQDILLARRPTKGIHEYDFEIKNVPFKMVDVGGQRSERKRWFECFDSVTSILFLVSSSEFDQVLMEDRQTNRLTESLNIFETIVNNRVFSNVSIILFLNKTDLLEEKVQVVSIKDYFLEFEGDPHCLRDVQKFLVECFRGKRRDQQQRPLYHHFTTAINTENIRLVFRDVKDTILHDNLKQLMLQ
notes: N-terminal region (αN helix) of rat Gαi1, amino acid residues 1-28; A few vector residues are likely left after PreScission cleavage of the pGEX-6P-1 product (surmise); also called Gα13iN・GDP; Gα13・GDP; source: E. coli BL21[DE3], purified (glutathione-sepharose 4B, cut off the column with PreScission Protease, dialysed; GDP added to 10 μM)
no binding: all assays above

From article PMC11815680, “Receptor-independent regulation of Gα13 by alpha-1-antitrypsin C-terminal peptides” (The Journal of Biological Chemistry, 2024)
